Data published in patent US20090117549.

Columns and labels:
[1] = target: T1, PTK7 (isoform PTK7-5 hit by LC-MS/MS) from CCRF-CEM membrane extract (Homo sapiens) (UniProt Q13308); assay: pull-down; conditions: protein in an extract, label: biotin, single-stranded DNA
T1 sequence (looked up, limits assumed): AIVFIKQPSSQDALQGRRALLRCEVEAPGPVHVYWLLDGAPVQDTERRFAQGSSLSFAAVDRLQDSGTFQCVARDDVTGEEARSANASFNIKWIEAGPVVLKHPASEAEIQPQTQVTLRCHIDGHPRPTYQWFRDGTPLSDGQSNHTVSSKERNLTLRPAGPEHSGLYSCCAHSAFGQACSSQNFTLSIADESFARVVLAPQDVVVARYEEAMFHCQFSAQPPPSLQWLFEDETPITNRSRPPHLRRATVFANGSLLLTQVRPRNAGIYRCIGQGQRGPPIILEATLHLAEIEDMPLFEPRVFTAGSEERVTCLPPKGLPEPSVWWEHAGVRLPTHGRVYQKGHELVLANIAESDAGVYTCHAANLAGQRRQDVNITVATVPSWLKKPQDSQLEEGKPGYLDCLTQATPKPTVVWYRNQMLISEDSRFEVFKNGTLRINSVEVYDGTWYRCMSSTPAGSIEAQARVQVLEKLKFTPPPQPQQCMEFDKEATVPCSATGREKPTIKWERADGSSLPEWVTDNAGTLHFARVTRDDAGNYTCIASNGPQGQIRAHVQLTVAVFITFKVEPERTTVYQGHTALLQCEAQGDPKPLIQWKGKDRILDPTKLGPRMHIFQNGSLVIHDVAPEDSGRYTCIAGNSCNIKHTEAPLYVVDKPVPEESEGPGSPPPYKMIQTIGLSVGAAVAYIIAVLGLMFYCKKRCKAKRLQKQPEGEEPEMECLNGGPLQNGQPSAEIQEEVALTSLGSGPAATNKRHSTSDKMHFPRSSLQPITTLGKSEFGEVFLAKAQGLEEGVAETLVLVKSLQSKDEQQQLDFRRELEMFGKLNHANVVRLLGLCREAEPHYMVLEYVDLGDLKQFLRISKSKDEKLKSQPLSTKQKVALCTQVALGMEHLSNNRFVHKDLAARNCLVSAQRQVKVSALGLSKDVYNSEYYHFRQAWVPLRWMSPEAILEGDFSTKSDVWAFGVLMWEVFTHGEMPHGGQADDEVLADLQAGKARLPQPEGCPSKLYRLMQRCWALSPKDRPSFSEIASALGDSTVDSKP

[2] = target: T2, PTK7 (protein tyrosine kinase 7, CCK-4), endogenous on CCRF-CEM cells (Homo sapiens) (UniProt Q13308); assay: flow cytometry; conditions: apparent Kd on whole CCRF-CEM cells; PTK7 later identified as target; 5 mM MgCl2, 20% FBS, tRNA, BSA, on ice; protein on the cell surface; label: FITC; single-stranded DNA
T2 sequence (looked up, limits assumed): T1 sequence (looked up, limits assumed)

[3] = target: T3, PTK7 transcript variant PTK7-1, transfected into Ramos or Toledo cells (Homo sapiens) (UniProt Q13308); assay: flow cytometry; conditions: Ramos and Toledo cells gain sgc8 binding after PTK7 transfection, linear with anti-PTK7-PE signal; protein on the cell surface; protein details: full-length cDNA in pCMV6-XL4, OriGene; label: FITC; single-stranded DNA
T3 sequence (looked up, limits assumed): T1 sequence (looked up, limits assumed)

“TACCCCTTTAATCCCAAACCC [Rb1 non-binding sequence]”: no binding ([1]; 5'-biotin, non-binding control, characteristic band absent by comparison).

“ATCTAACTGCTGCGCCGCCGGGAAAATACTGTACGGTTAGA [sgc8c]”: binds ([1]; 5'-biotin followed by four 18-atom ethylene glycol spacers, PBS, 5 mM MgCl2, 1% Triton X-100, 4 C, band identified by LC-MS/MS, variant of sgc8).

“ATACCAGCTTATTCAATTAGTCACACTTAGAGTTCTAACTGCTGCGCCGCCGGGAAAATACTGTACGGTTAGATAGTAAGTGCAATCT [sgc8]” was tested, and the pKd [2] was 9.10 and the binding result [3] was “binds”.

pKd: −log10 of the molar value. Construct, isoform or probe ends are uncertain for at least one entry. Where cells or extracts were used, other partners may take part. For some of these results: No signal at the amounts used counts as a negative. Where a protein sequence is shown, tags need not be part of it.
